{"source": "the supplement of paper PMC11542785", "note": "Structures can show the parent of a compound that is named as a salt. The list shows a part of the results. Most values come without repeats; read them as rough."}
{"tested_on": "Drosophila melanogaster DPAGT1 (Alg7) RNAi eye model", "experiment": "eye size Z-score vs DMSO-treated DPAGT1 model flies; higher = larger eye (suppression of DPAGT1 phenotype)", "settings": "5 uM"}
{"smiles": "CCCC(=O)Nc1ccc(OCC(O)CNC(C)C)c(C(C)=O)c1", "note": "(configuration not stated) [Acebutolol hydrochloride]", "eye size Z-score": 0.92}
{"smiles": "CC(=O)Nc1ccc(OCC(O)CNC(C)C)cc1", "note": "(configuration not stated) [Practolol]", "eye size Z-score": 0.31}
{"smiles": "CN1[C@@H]2CC[C@H]1C[C@@H](OC(c1ccccc1)c1ccccc1)C2", "note": "[Benztropine mesylate]", "eye size Z-score": 1.02}
{"smiles": "O=C(Nc1ccccc1)OCC(CN1CCCCC1)OC(=O)Nc1ccccc1", "note": "(configuration not stated) [Diperodon hydrochloride]", "eye size Z-score": -0.76}
{"smiles": "CCCCC1C(=O)N(c2ccccc2)N(c2ccccc2)C1=O", "note": "[Phenylbutazone]", "eye size Z-score": 0.33}
{"smiles": "CCCc1nc2c(C)cc(-c3nc4ccccc4n3C)cc2n1Cc1ccc(-c2ccccc2C(=O)O)cc1", "note": "[Telmisartan]", "eye size Z-score": 0.42}
{"smiles": "COCCCOc1cc(C[C@@H](C[C@H](N)[C@@H](O)C[C@H](C(=O)NCC(C)(C)C(N)=O)C(C)C)C(C)C)ccc1OC", "note": "[Aliskiren hemifumarate]", "eye size Z-score": 0.25}
{"smiles": "CCCCOC(=O)c1ccc(O)cc1", "note": "[Butylparaben]", "eye size Z-score": -1.54}
{"smiles": "CC(=O)/N=c1/sc(S(N)(=O)=O)nn1C", "note": "[Methazolamide]", "eye size Z-score": 0.15}
{"smiles": "N=C(N)N1CCc2ccccc2C1", "note": "[Debrisoquin sulfate]", "eye size Z-score": -0.56}
{"smiles": "C[C@H](O)[C@H](O)[C@H]1CNc2[nH]c(N)nc(=O)c2N1", "note": "[Sapropterin dihydrochloride]", "eye size Z-score": -0.05}
{"smiles": "O=C(O)Cc1cc(I)c(Oc2ccc(O)c(I)c2)c(I)c1", "note": "[Tiratricol]", "eye size Z-score": -0.72}
{"smiles": "COCCCOc1ccnc(C[S+]([O-])c2nc3ccccc3[nH]2)c1C", "note": "(configuration not stated) [Rabeprazole sodium salt]", "eye size Z-score": -0.25}
{"smiles": "CNCC[C@@H](Oc1ccccc1C)c1ccccc1", "note": "[Tomoxetine hydrochloride]", "eye size Z-score": 1.63}
{"smiles": "Cc1ccc(C(=O)C(C)CN2CCCCC2)cc1", "note": "(configuration not stated) [Tolperisone hydrochloride]", "eye size Z-score": 0.73}
{"smiles": "O=C(CCCCC(=O)Nc1c(I)cc(I)c(C(=O)O)c1I)Nc1c(I)cc(I)c(C(=O)O)c1I", "note": "[Iodipamide]", "eye size Z-score": 0.65}
{"smiles": "CCCNC(C)C(=O)Nc1c(C)csc1C(=O)OC", "note": "(configuration not stated) [Articaine hydrochloride]", "eye size Z-score": -0.33}
{"smiles": "NCCc1cc[nH]n1", "note": "[Betazole hydrochloride]", "eye size Z-score": 0}
{"smiles": "COc1cccc(N(C)C(=S)Oc2ccc3c(c2)CCCC3)n1", "note": "[Liranaftate]", "eye size Z-score": 0.84}
{"smiles": "Cc1c(NC(C)C)c(=O)n(-c2ccccc2)n1C", "note": "[Isopyrin hydrochloride]", "eye size Z-score": -0.27}
{"smiles": "CC(C[N+](C)(C)C)OC(N)=O", "note": "(configuration not stated) [Bethanechol chloride]", "eye size Z-score": -1.17}
{"smiles": "COc1ccc2c(c1)C(=O)N(CCc1ccc(S(=O)(=O)NC(=O)NC3CCCCC3)cc1)C(=O)C2(C)C", "note": "[Gliquidone]", "eye size Z-score": 1.43}
